Positions count from the first letter of the chain named. These are yes or no findings as the source states them, for the method shown. In cells and extracts the contact can be indirect. Some results given as binding are weak or reduced against the parent protein; the word gives no strength. For some of these results: Where a sequence is shown, tags or fusion partners need not be part of it.

What all share (test): co-IP
Experiment [1] concerns the target T1, GFP-Auxilin (wild type, human) (human) (UniProt O75061).
T1 sequence: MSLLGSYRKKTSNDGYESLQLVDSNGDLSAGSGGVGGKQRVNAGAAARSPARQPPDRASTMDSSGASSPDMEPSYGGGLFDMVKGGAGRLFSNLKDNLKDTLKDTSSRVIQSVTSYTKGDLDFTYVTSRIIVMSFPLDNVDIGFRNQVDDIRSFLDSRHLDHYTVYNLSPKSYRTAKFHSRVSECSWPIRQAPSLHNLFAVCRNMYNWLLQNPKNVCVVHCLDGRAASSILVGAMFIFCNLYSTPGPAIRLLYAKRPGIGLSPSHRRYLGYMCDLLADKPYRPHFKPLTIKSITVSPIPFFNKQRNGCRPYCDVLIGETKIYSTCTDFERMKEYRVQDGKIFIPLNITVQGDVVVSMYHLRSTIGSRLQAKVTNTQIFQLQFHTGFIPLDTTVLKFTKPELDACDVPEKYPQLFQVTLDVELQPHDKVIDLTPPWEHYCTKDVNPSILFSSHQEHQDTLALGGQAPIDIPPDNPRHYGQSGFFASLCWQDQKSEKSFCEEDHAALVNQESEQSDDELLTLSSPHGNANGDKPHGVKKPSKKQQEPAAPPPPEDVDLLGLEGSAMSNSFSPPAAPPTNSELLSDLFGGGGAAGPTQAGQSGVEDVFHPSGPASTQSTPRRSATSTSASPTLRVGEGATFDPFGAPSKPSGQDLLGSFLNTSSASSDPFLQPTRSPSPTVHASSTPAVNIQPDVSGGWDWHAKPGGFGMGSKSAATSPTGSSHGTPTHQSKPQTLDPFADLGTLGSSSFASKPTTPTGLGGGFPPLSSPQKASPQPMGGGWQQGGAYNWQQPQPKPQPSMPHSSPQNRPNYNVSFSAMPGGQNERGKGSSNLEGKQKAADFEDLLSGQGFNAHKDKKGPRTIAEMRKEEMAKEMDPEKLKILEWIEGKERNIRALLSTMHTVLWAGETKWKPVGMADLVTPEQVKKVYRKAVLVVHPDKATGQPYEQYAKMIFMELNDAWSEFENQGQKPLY

The target of experiment [2] is T2, GFP-GAK (UniProt O14976).
T2 sequence: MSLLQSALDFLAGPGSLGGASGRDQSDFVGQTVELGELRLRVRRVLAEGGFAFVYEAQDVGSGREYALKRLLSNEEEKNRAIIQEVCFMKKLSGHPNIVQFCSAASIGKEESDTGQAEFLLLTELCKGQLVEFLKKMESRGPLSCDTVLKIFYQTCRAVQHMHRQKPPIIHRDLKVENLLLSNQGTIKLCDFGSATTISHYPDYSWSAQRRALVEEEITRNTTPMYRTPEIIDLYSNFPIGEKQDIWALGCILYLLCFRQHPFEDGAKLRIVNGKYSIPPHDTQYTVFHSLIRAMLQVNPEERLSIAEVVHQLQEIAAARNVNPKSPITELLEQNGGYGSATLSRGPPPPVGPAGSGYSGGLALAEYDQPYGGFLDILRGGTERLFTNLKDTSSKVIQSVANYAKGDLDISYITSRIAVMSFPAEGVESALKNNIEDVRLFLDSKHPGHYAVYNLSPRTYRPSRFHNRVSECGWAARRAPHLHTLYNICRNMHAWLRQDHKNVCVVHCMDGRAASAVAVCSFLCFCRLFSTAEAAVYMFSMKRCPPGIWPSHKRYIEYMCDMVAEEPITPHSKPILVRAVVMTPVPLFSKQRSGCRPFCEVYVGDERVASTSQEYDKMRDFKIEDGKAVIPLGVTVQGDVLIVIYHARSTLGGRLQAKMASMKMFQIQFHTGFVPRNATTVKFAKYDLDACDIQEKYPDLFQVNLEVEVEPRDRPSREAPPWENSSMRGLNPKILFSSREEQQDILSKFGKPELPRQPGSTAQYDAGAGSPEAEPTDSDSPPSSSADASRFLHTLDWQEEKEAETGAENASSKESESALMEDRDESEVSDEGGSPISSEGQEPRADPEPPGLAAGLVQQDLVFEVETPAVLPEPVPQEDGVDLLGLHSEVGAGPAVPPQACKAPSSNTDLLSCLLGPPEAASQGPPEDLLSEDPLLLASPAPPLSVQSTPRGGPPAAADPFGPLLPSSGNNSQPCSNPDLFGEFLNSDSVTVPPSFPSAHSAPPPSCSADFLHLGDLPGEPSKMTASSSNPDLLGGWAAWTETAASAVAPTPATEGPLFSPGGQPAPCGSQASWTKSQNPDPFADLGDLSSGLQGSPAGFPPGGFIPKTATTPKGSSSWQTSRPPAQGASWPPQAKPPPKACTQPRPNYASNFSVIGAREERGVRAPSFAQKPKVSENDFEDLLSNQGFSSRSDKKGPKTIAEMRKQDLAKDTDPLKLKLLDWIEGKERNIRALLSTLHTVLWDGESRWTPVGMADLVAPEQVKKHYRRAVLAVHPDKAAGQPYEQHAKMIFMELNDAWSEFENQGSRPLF

Experiment [3] addresses T3, Auxilin, endogenous, brain of WT mice (mouse (endogenous in brain)) (UniProt Q80TZ3).
T3 sequence: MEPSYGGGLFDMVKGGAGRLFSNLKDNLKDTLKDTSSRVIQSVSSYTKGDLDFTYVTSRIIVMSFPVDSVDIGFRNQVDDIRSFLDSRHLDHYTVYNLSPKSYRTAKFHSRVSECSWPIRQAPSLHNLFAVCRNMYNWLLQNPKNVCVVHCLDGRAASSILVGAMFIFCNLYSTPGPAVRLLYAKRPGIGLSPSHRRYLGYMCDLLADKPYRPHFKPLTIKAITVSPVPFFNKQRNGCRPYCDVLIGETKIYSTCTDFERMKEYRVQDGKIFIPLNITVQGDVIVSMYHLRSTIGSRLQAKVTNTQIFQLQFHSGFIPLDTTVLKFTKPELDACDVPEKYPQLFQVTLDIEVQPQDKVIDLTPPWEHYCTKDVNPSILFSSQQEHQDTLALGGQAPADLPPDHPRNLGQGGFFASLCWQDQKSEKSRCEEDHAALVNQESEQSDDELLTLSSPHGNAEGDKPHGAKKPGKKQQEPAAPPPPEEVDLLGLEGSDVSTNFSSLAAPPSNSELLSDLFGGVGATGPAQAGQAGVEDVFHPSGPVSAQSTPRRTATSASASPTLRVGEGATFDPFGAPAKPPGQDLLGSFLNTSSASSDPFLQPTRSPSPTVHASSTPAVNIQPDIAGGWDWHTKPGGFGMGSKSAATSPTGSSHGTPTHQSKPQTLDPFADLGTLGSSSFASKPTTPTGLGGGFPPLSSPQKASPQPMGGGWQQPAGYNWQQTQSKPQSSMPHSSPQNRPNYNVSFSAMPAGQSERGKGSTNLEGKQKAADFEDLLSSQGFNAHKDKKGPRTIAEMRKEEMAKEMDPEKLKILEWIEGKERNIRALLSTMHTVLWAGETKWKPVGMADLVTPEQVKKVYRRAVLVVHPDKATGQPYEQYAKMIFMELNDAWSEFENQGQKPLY

Experiment [4] addresses T4, R857G Auxilin, endogenous, brain of homozygous R857G knockin mice (mouse (endogenous in brain)) (UniProt Q80TZ3).
T4 sequence: T3 sequence with R857G

B1: GGA1, endogenous in HEK293FT (protein, UniProt Q9UJY5 1-639)
chain: MEPAMEPETLEARINRATNPLNKELDWASINGFCEQLNEDFEGPPLATRLLAHKIQSPQEWEAIQALTVLETCMKSCGKRFHDEVGKFRFLNELIKVVSPKYLGSRTSEKVKNKILELLYSWTVGLPEEVKIAEAYQMLKKQGIVKSDPKLPDDTTFPLPPPRPKNVIFEDEEKSKMLARLLKSSHPEDLRAANKLIKEMVQEDQKRMEKISKRVNAIEEVNNNVKLLTEMVMSHSQGGAAAGSSEDLMKELYQRCERMRPTLFRLASDTEDNDEALAEILQANDNLTQVINLYKQLVRGEEVNGDATAGSIPGSTSALLDLSGLDLPPAGTTYPAMPTRPGEQASPEQPSASVSLLDDELMSLGLSDPTPPSGPSLDGTGWNSFQSSDATEPPAPALAQAPSMESRPPAQTSLPASSGLDDLDLLGKTLLQQSLPPESQQVRWEKQQPTPRLTLRDLQNKSSSCSSPSSSATSLLHTVSPEPPRPPQQPVPTELSLASITVPLESIKPSNILPVTVYDQHGFRILFHFARDPLPGRSDVLVVVVSMLSTAPQPIRNIVFQSAVPKVMKVKLQPPSGTELPAFNPIVHPSAITQVLLLANPQKEKVRLRYKLTFTMGDQTYNEMGDVDQFPPPETWGSL
Turning to B1, the binding entry in experiment [1] and in experiment [2] was “no binding” throughout.

B2: AP180, endogenous in mouse brain (protein, UniProt Q61548 1-901)
chain: MSGQTLTDRIAAAQYSVTGSAVARAVCKATTHEVMGPKKKHLDYLIQATNETNVNIPQMADTLFERATNSSWVVVFKALVTTHHLMVHGNERFIQYLASRNTLFNLSNFLDKSGSHGYDMSTFIRRYSRYLNEKAFSYRQMAFDFARVKKGADGVMRTMVPEKLLKSMPILQGQIDALLEFDVHPNELTNGVINAAFMLLFKDLIKLFACYNDGVINLLEKFFEMKKGQCKDALEIYKRFLTRMTRVSEFLKVAEQVGIDKGDIPDLTQAPSSLMETLEQHLNTLEGKKPGNNEGSGAPSPLSKSSPATTVTSPNSTPAKTIDTSPPVDIFATASAAAPVSSAKPSSDLLDLQPDFSGAAAGAAAPVVPPSGGATAWGDLLGEDSLAALSSVPCEAPISDPFAPEPSPPTTTTEPASASASTTTAVTAVTTEVDLFGDAFAASPGEAPAASEGATAPATPAPVAAALDACSGNDPFAPSEGSAEAAPELDLFAMKPPETSAPVVTPTASTAPPVPATAPSPAPTAVAATAATTTAAAAATTTATTSAAAATTAAAPPALDIFGDLFDSAPEVAAAPKPDAAPSIDLFGTDAFSSPPRGASPVPESSLTADLLSVDAFAAPSPASTASPAKAESSGVIDLFGDAFGSGASETQPAPQAVSSSSASADLLAGFGGSFMAPSTTPVTPAQNNLLQPSFEAAFGTTPSTSSSSSFDPSVFDGLGDLLMPTMAPSGQPAPVSMVPPSPAMAASKGLGSDLDSSLASLVGNLGISGTTSKKGDLQWNAGEKKLTGGANWQPKVTPATWSAGVPPQGTVPPTSSVPPGAGAPSVGQPGAGFGMPPSGTGMTMMSQQPVMFAQPMMRPPFGAAAVPGTQLSPSPTPATQSPKKPPAKDPLADLNIKDFL
Consider B2, for which the binding result in experiment [3] and in experiment [4] was “binds” each time.

The record behind these values is publication doi:10.1101/830802.
